Source: US20160015828A1 (AbbVie / Abbott, published 2016)
Results are given in words; binding and its absence hold for the method and conditions named. Some entries that bind do so weakly or less than the wild type.

Amino acid sequences for entries named in this document (tags omitted). A change or cut given only in a name is not applied to a line headed by its entry.
UniProt Q9NYJ7: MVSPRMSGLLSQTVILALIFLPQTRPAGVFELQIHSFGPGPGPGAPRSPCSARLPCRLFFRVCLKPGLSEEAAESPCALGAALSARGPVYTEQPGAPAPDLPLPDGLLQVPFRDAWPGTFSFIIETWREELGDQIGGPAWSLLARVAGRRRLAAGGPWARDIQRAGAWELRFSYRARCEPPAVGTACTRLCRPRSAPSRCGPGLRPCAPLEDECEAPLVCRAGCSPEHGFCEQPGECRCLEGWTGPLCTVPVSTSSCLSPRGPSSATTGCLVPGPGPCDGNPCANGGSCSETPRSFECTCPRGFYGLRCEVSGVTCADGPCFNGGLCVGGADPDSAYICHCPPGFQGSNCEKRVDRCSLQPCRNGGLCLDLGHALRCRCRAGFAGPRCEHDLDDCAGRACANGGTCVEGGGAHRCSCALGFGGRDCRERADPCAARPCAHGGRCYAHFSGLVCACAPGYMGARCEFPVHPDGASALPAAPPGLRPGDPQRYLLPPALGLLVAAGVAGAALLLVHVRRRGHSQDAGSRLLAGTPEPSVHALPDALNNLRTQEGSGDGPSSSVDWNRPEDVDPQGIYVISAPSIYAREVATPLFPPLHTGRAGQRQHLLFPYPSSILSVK

B1: SC16.138 (antibody, V domains shown)
VH: QVQLKESGPGLVAPSQSLSITCTVSGFSLTDYGVSWIRQPPGKGLEWLGVVWGGGSTYYNSALKSRLSISKDNSKSQVFLKMNSLQTDDTAMYYCAKQRGQYGAYWGQGTLVTVSA
VL: DIQMTQSPASQSASLGESVTITCLASQTIGTWLAWYQQKPGKSPQLLIYSATSLADGVPSRFSGSGSGTKFSFKISSLQAEDFVSYYCQQLYSTPWTFGGGTKLEIK
B2: SC16.147 (antibody, V domains shown)
VH: QIQLVQSGPELTKPGETVKISCKASGYTFTDYSLHWVKQALGKGLKWMGWINTETGEPAYADDFKGRFAFSLETSASTAYLQINDLKNEDTTTYFCGIYDGYAMDYWGQGTSVTVSS
VL: DIQMTQTASSLSASLGDRVTISCRASQDINNYLNWYQQKPDGTVKLLIYYTSRLHSGVPSRFSGSGSGTDYSLTISILEQEDIATYFCQQGDTLPWTFGGGTKLEIK
B3: SC16.144 (antibody, V domains shown)
VH: QIQLVQSGPELKKPGETVKISCKASGYTFTNYGMNWVKQAPGKGLKWVGWINTYTGEPTYADDFKGRFAFSLETSASTAYLQIDNLKNEDTATYFCARVGDYVGFDYWGQGTTLTVSS
VL: SIVMTQTPKFLLVSAGDRVTITCKASQSVSNDVGWYQQKPGQSPKLLIYYASNRYNGVPDRFTGSGYGTDFTFTISTVQAEDLAVYFCQQDYSSPWTFGGGTKLEIK
B4: SC16.141 (antibody, V domains shown)
VH: QVQLKQSGPGLVAPSQSLFITCTVSGFSLTSYEINWVRQPPGKGLEWLGVIWTGGSTNYNSALISRLSISKDNSKSLVFLKMNSLQTDDTAIYYCVRGVYAMDYWGQGTSVTVSS
VL: DIKMTQSPSSMYASLGERVTITCKASQDINSYLSWFQQKPGKSPKTLIYRANRLVDGVPSRFSGSGSGQDYSLTISSLEYEDMGIYYCLQYDEFPFTFGSGTKLEIK
B5: SC16.143 (antibody, V domains shown)
VH: QVQLQQSGPELVKPGASVRISCKASGYTFTSYYIHWVKQRPGQGLEWIGWIYPGNGNTKYNEKFKGKATLTADKSSSTAYMQISSLTSEDSAVYFCARERWLLLWFAYWGQGTLVTVSA
VL: DVLMTQTPLSLPVSLGDQASISCRSSQSIVHSNGNTYLEWYLQKPGQSPKLLIYKVSNRFSGVPDRFSGSGSGTDFTLKISRVEAEDLGVYYCFQGSHVPLTFGAGTKLELK
B6: SC16.148 (antibody, V domains shown)
VH: QIQLVQSGPELKKPGETVKISCKASGYTLTNYGMNWVKQAPGKGLKWMGWINTYTGEPTYADDFKGRFAFSLETSARIVYLQINNLKNEDTATYFCAKYEAHEGFVYWGQGTLVTVSA
VL: QIVLTQSPAIMSASPGEKVTMTCSASSSVSYMYWYQQKPGSSPRLLIYDTSNLASGVPVRFSGSGSGTSYSLTISRMEAEDTATYYCQEWSNNPLTFGDGTKLELK
B7: SC16.140 (antibody, V domains shown)
VH: QVQLQQSGPELVRPGASVKMSCKASGYTFTSYWMHWVKQRPGQGLEWIGMIDPSNSETRLNQKFKDKATLNVDKSSNTAYMQLSSLTSEDSAVYYCAVMDYYFDYWGQGTTLTVSS
VL: DIVLTQSLASLAVSLGQRATISCRASKSVSTSGYSYMHWYQQKPGQPPKLLIYLASNLESGVPARFSGSGSGTDFTLNIHPVEDEDAATYYCQHSRELPFTFGGGTKLEIK
B8: SC16.139 (antibody, V domains shown)
VH: EVQLQQSGPELVKPGASVKMSCKASGYTFTNYVMHWVKQKPGQGLEWIGYINPYNDGTKYNEKFKGKATLTSDKSSTTAYMALSSLTSEDSAVYYCAVAYYSNWGFAYWGQGTLVTVSA
VL: DIVMTQSHKFMSTSVGDRVSITCKASQDVNTAVGWYQQKPGQSPKLLIYSASYRYTGVPDRFTGSGSGTDFTFTISSVQAEDLAVYYCQQHYSSPYTFGGGTKLEIK

Molecular target: DLL3 (UniProt Q9NYJ7)
Assay: screening on immobilized DLL3 or 293-hDLL3 cells

binding, binds:
B1
B2
B3
B4
B5
B6
B7
B8
